Measured values as given in US9993464B2 (SANOFI, priority 2011, dated 2018).
The source gives many values for each of these; only a part stands here.

How the values were obtained:
[1] = Level of impurities in dependency on pH and repeated autoclaving (HPLC), Example 6; type: physicochemical
Method: The appropriate pH value was adjusted by using sodium hydroxide solution (1 M sodium hydroxide) or diluted hydrochloric acid (1 M hydrochloric acid). […] HP Zorbax SB-C18, 3.5 μm • Column material: stainless steel • Column length: 150 mm • Column internal diameter: 4.6 mm • Equilibration of the column: Column must be rinsed with mobile phase B (% B=25) for at least 60 minutes at a flow rate of 1 mL/min prior to sample injection. • Storage of the column: Column can be stored in acetonitrile/water=20/80 (v/v) Mobile Phase A […] The mobile phase was filtered through a 1.5 μm filter. Typically, add 500 mL of mobile phase A to 500 mL of acetonitrile. Mix and degas. [table] Procedure • Flow rate: 1 mL/min • Injection volume: 40 μl • Auto sampler temperature: Set autosampler temperature at +12° C. • Column temperature: […]

[2] = Level of impurities in dependency on Otamixaban concentration and autoclaving (HPLC), Example 7; type: physicochemical
Description: The appropriate pH value was adjusted by using sodium hydroxide solution (1 M sodium hydroxide) or diluted hydrochloric acid (1 M hydrochloric acid).

- Increase of Formula II (carbamimidoyl-benzyl butyric acid) ([1]; pH 2.5, number of autoclaving 3): 0.79%
- Increase of Formula II (carbamimidoyl-benzyl butyric acid) ([1]; pH 3.0, number of autoclaving 0): 0.08%
- Increase of Formula II (carbamimidoyl-benzyl butyric acid) ([1]; pH 3.0, number of autoclaving 1): 0.18%
- Increase of Formula II (carbamimidoyl-benzyl butyric acid) ([1]; pH 3.0, number of autoclaving 2): 0.26%
- Increase of Formula II (carbamimidoyl-benzyl butyric acid) ([1]; pH 3.0, number of autoclaving 3): 0.36%
- Increase of Formula III (carbamoyl-benzyl butyric acid methyl ester) ([2]; pH 4.2-4.3, 5 mg/mL, vial 5 mL, 20 min 123° C., number of autoclaving 0): 0.2%
- Increase of Formula III (carbamoyl-benzyl butyric acid methyl ester) ([2]; pH 4.2-4.3, 5 mg/mL, vial 5 mL, 20 min 123° C., number of autoclaving 1): 0.9%
- Increase of Formula III (carbamoyl-benzyl butyric acid methyl ester) ([2]; pH 4.2-4.3, 5 mg/mL, vial 5 mL, 20 min 123° C., number of autoclaving 2): 1.7%
- Increase of Formula III (carbamoyl-benzyl butyric acid methyl ester) ([2]; pH 4.2-4.3, 5 mg/mL, vial 5 mL, 20 min 123° C., number of autoclaving 3): 2.5%
- Increase of Formula III (carbamoyl-benzyl butyric acid methyl ester) ([2]; pH 4.2, 1 mg/mL, vial 50 mL, 20 min […] C., number of autoclaving 0): 0.4%
- Increase of Formula III (carbamoyl-benzyl butyric acid methyl ester) ([2]; pH 4.2, 1 mg/mL, vial 50 mL, 20 min […] C., number of autoclaving 1): 1.3%
- Increase of Formula III (carbamoyl-benzyl butyric acid methyl ester) ([2]; pH 4.2, 1 mg/mL, vial 50 mL, 20 min […] C., number of autoclaving 2): 2.3%
- Increase of Formula III (carbamoyl-benzyl butyric acid methyl ester) ([2]; pH 4.2, 1 mg/mL, vial 50 mL, 25 min 125° C., number of autoclaving 0): 0.4%
- Increase of Formula III (carbamoyl-benzyl butyric acid methyl ester) ([2]; pH 4.2, 1 mg/mL, vial 50 mL, 25 min 125° C., number of autoclaving 1): 1.3%
- Increase of Formula III (carbamoyl-benzyl butyric acid methyl ester) ([2]; pH 4.2, 5 mg/mL, vial 5 mL, 20 min 123° C., number of autoclaving 0): 0.3%
- Increase of Formula III (carbamoyl-benzyl butyric acid methyl ester) ([2]; pH 4.2, 5 mg/mL, vial 5 mL, 20 min 123° C., number of autoclaving 1): 1.0%
- Increase of Formula III (carbamoyl-benzyl butyric acid methyl ester) ([2]; pH 4.2, 5 mg/mL, vial 5 mL, 20 min 123° C., number of autoclaving 2): 1.8%
- Increase of Formula III (carbamoyl-benzyl butyric acid methyl ester) ([2]; pH 4.2, 5 mg/mL, vial 5 mL, 20 min 123° C., number of autoclaving 3): 2.6%
- Increase of Formula III (carbamoyl-benzyl butyric acid methyl ester) ([2]; pH 4.2, 5 mg/mL, vial 50 mL, 25 min 125° C., number of autoclaving 0): 0.4%
- Increase of Formula III (carbamoyl-benzyl butyric acid methyl ester) ([2]; pH 4.2, 5 mg/mL, vial 50 mL, 25 min 125° C., number of autoclaving 1): 1.4%
- Increase of Formula III (carbamoyl-benzyl butyric acid methyl ester) ([2]; pH 4.2, 50 mg/mL, vial 5 mL, 20 min 123° C., number of autoclaving 0): 0.3%
- Increase of Formula III (carbamoyl-benzyl butyric acid methyl ester) ([2]; pH 4.2, 50 mg/mL, vial 5 mL, 20 min 123° C., number of autoclaving 1): 1.1%
- Increase of Formula III (carbamoyl-benzyl butyric acid methyl ester) ([2]; pH 4.2, 50 mg/mL, vial 5 mL, 20 min 123° C., number of autoclaving 2): 1.9%
- Increase of Formula III (carbamoyl-benzyl butyric acid methyl ester) ([2]; pH 4.2, 50 mg/mL, vial 5 mL, 20 min 123° C., number of autoclaving 3): 2.7%
Compound: COC(=O)[C@H](Cc1cccc(C(=N)N)c1)[C@@H](C)NC(=O)c1ccc(-c2cc[n+]([O-])cc2)cc1 (mixture of isomers) [Otamixaban, Methyl (2R,3R)-2-{3-[amino(imino)methyl]benzyl}-3-{[4-(1-oxidopyridin-4-yl)benzoyl]amino}butanoate]
